In patent US20240285723A1, “COMBINATION COMPOSITIONS FOR THE TREATMENT OF PATHOGEN INFECTIONS AND ASSOCIATED COMPLICATIONS” (priority 2021, published 2024):
For some assays here: Part of at least one peptide drawing is inferred or uncertain, most often the ends. For some assays here: At least one structure is not confirmed: it was looked up by name or label, or the drawing left a doubt. Where no end group is shown, it is not given here.

Sequences of proteins named here, by UniProt entry; tags and fusion partners are left off.
UniProt P34972, whole entry: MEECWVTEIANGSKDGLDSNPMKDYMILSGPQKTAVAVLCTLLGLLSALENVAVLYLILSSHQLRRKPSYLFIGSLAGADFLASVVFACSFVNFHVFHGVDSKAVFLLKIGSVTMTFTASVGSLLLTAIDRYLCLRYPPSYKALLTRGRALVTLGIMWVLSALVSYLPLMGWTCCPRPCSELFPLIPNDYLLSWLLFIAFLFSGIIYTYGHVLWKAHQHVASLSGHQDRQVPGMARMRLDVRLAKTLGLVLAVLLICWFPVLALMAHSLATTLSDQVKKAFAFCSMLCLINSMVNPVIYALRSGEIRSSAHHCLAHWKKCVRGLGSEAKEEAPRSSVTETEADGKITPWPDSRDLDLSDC
UniProt P21554, whole entry: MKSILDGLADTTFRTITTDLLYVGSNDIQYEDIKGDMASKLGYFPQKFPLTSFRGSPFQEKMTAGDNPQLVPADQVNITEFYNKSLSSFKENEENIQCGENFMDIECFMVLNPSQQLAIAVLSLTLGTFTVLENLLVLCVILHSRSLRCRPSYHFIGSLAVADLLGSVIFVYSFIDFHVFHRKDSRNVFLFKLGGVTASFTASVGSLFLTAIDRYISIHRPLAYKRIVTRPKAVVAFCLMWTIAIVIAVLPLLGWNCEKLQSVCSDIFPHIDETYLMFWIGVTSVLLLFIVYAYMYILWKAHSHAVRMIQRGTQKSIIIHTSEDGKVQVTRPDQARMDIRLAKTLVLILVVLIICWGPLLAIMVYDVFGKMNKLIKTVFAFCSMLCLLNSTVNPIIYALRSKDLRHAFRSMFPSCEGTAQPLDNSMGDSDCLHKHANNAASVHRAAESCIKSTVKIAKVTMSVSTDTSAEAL

Assays:
[1] = test system: COVID-19 patients; settings: COVID-19 patients receiving respiratory support; cited from earlier work
[2] = test system: LPS-injected mice; experiment: LPS-induced septic shock mouse model: survival and murine sepsis score (MSS); assay type: in vivo
Procedure: Male wild type 8-10 weeks old mice of inbred strain C57BL/6J-RCC were obtained from Envigo Ltd. All experiments were in accordance and with the approval of the institutional animal care and use committee of Tel-Aviv University for these experiments (permit number 01-20-022). The mice were divided into treatment groups 24 hours before LPS administration. All treatments were administered intraperitoneally (IP). OGP was administered at the indicated doses only twice, 24 hrs before LPS and right before the LPS at a dose of 0.5, 5 or 15 μg/kg. Olorinab was administered at 0.33, 1, or 5 mg/kg twice a day starting 24 hours before LPS. DHEA was injected once a day at a dose of 30 mg/kg, starting 24 hr before LPS injection. β-Caryophyllene (BCP or BCP, used herein interchangeably) and Pregnenolone were injected every 12 hours starting 24 h before the LPS injection. A single IP injection of LPS was administered at 25 μg/gr dose. This study had 2 control groups as indicated in the experiments below. One that received PBS instead of the LPS injection (‘PBS’), and one that received PBS instead of the treatments (CB2 agonist or steroid) before the LPS injection (‘LPS’). For humane reasons murine sepsis score (MSS) was used as a surrogate for survival (Mai et al. Intensive Care Med Exp, 2018 Jul. 27; 6(1):20. doi: 10.1186/s40635-018-0184-3). A low MSS score (0-2) served as a surrogate for survival while mice that reached the score 3 were defined as critically ill and were euthanized.
Statistical analyses—For survival experiments, Gehan-Breslow-Wilcoxon test was used for multiple groups comparison. For disease progression Dunnett's multiple comparisons test was used. Differences between groups were considered significant when P<0.05.
A dose response experiment was conducted to test the potential effect of 5aa-OGP in the sepsis model (FIG. 1A). A single injection of 5aa-OGP was administered i.p. at 3 different doses, 0.5 μg/kg, 5 μg/kg and 15 μg/kg, 24 hours prior to the LPS injection; these concentrations were chosen based on the previous works in the lab.
In a separate experiment, mice received a single i.p. injection of the optimal dose of 5aa-OGP (5 μg/kg) and 24 hours later were intraperitoneal (i.p) injected with a lethal dose of LPS. Control mice received a single PBS injection 24 hours prior to LPS injection.
In order to test the therapeutic potential of another CB2 agonist, olorinab was tested in improving survival rate in a mouse model of septic shock induced by LPS injection. Olorinab was administered i.p. 24 hours prior to LPS injection followed by twice-daily injections of olorinab.
The combinations DHEA+olorinab and DHEA+5aa-OGP were tested versus each compound alone and versus vehicle only (no treatment) in LPS-injected mice. The mice received the first dose of treatment 24 hr before LPS injection in the treated groups. All the injections were given i.p., olorinab doses were administered twice a day, DHEA and 5aa-OGP were administered once a day. LPS was given only once.
The combination BCP+Pregnenolone was tested versus each compound alone and versus vehicle only (no treatment) in LPS-injected mice. Mice were pre-treated with ß-Caryophyllene (BCP. 25 mg/kg) and pregnenolone (Preg, 10 mg/kg), separately (FIG. 4A) and in combination 24 and 12 hrs before LPS injection (25 mg/kg) and then every 12 hrs. All the injections were given i.p., twice a day. LPS was given only once. A Murine Septic Score (MSS) was recorded every 12 hours (FIGS. 4A and 4C). […]

[3] = biological target: T1, human CB2 receptor (Homo sapiens, UniProt P34972); experiment: Forskolin-stimulated cAMP assay in CHO cells transfected with human CB2 receptor; assay type: cell-based; settings: p<0.05 vs. FSK, n=3
T1 construct: expressed in transfected cells; host or cells: CHO cells

[4] = biological target: T2, human CB1 receptor (Homo sapiens, UniProt P21554); experiment: Forskolin-stimulated cAMP assay in HEK293 cells transfected with human CB1 receptor; assay type: cell-based; settings: varying doses, n=3
T2 construct: expressed in transfected cells; host or cells: HEK293 cells

[5] = test system: Primary macrophages; experiment: Pro-inflammatory cytokine levels in LPS-activated primary macrophages; assay type: cell-based; settings: LPS-activated macrophages in vitro; varying doses; p<0.05 vs. LPS, n=3
[6] = test system: WT mice; experiment: Xylene-induced ear edema in WT mice; assay type: in vivo; settings: 10 ng per mouse subcutaneously once, 24 hours prior to xylene; p<0.05 vs. vehicle, n=6
[7] = test system: CB2 receptor-knockout mice; experiment: Xylene-induced ear edema in CB2 receptor-knockout mice; assay type: in vivo; settings: 10 ng per mouse subcutaneously once, 24 hours prior to xylene; n=6
[8] = test system: IFNγ; experiment: IFNγ expression in lung tissue of LPS-injected mice (real-time qPCR); assay type: in vivo, mouse; settings: injected 24 h and 12 h before LPS; RNA from lung 12 hours after LPS

Molecule | 28-day mortality, patients receiving respiratory support [1] | survival of treated mice in dose response experiment ([2]; 0.5, 5 and 15 μg/kg i.p., not statistically significant) | increase in survival relative to the LPS group ([2]; dose response experiment, 5 μg/kg i.p. 24 hours prior to LPS) [fold] | survival, highest dose versus medium dose ([2]; dose response experiment, 15 μg/kg versus 5 μg/kg) | survival after 36 hours ([2]; separate experiment, single i.p. injection 5 μg/kg 24 hours before lethal LPS, n=6) [%] | increase in survival compared to PBS-treated mice ([2]; separate experiment, single i.p. injection 5 μg/kg 24 hours before lethal LPS, p=0.03, n=6) [fold] | forskolin-stimulated cAMP levels, CB2 [3] | FSK-stimulated cAMP levels, CB1 [4] | expression level of IL-1β [5] | expression level of IL-6 [5] | expression level of TNF-α [5] | ear edema (ear swelling) in WT mice [6] | ear edema (ear swelling) in CB2 receptor-knockout mice [7] | IFNγ expression in lung tissues [8]
C[C@@H]1C[C@H]2[C@@H]3CCC4=CC(=O)C=C[C@]4(C)[C@@]3(F)[C@@H](O)C[C@]2(C)[C@@]1(O)C(=O)CO [dexamethasone] | reduced |  |  |  |  |  |  |  |  |  |  |  |  | 
YGFGG [5aa-OGP] |  | trend for increased survival | 3.5 | no noticeable advantage | 83.3 | 5 | significant reversal | no significant increase | significantly reduces | significantly reduces | significantly reduces | significantly reduces | no beneficial effect | increased its expression beyond the levels of the control mice
